# Data taken from the supplement of paper PMC3682954.
# Where a name gives a salt, the structure may show the parent alone. ± gives the standard deviation of the averaged measurements. The list shows a part of the results. Single values are uncertain, as repeats are few or missing.
# Test system: RAW 264.7
# Assay: HMGB1-induced TNF-alpha production relative to HMGB1-stimulated control; higher = more TNF-alpha secretion (less inhibition)
# Details: stimulus: HMGB1 5 ug/ml, 18 h
# [1] = compound concentration: 1 ug/ml
smiles,measurement,setting,value
CCCCc1oc2ccccc2c1C(=O)c1cc(I)c(OCCN(CC)CC)c(I)c1 [Amiodarone hydrochloride],HMGB1-induced TNF-alpha production,compound concentration: 3 uM,82.9 ± 9.2%
CCCCc1oc2ccccc2c1C(=O)c1cc(I)c(OCCN(CC)CC)c(I)c1 [Amiodarone],HMGB1-induced TNF-alpha production,compound concentration: 3 uM,91.9%
CCCCc1oc2ccccc2c1C(=O)c1cc(I)c(OCCN(CC)CC)c(I)c1,HMGB1-induced TNF-alpha production,compound concentration: 3 uM,96.8 ± 1.2%
O=c1[nH]c(=O)n([C@H]2C[C@H](O)[C@@H](CO)O2)cc1I [Idoxuridine],HMGB1-induced TNF-alpha production,compound concentration: 3 uM,79.6 ± 17%
Cc1cccc(-c2cc(=O)c3cc(Br)ccc3o2)c1 [6-Bromo-3'-methylflavone],HMGB1-induced TNF-alpha production,[1],72.2%
COc1cc(C(=O)OC2CC3CCC2(C)C3(C)C)ccc1O (centres undefined),HMGB1-induced TNF-alpha production,[1],73.7%
Cc1cccc(N(C)C(=S)Oc2ccc3ccccc3c2)c1,HMGB1-induced TNF-alpha production,compound concentration: 3 uM,70.1%
Cc1cccc(N(C)C(=S)Oc2ccc3ccccc3c2)c1 [Tolnaftate],HMGB1-induced TNF-alpha production,compound concentration: 3 uM,28.9%
N[C@@H](COP(=O)(O)O)C(=O)O [O-Phospho-L-serine],HMGB1-induced TNF-alpha production,compound concentration: 3 uM,107%
"CC1(C)OC2[C@@H](O1)[C@H](n1cnc3c(N)ncnc31)O[C@@H]2CO (some centres undefined) [2',3'-O-Isopropylideneadenosine]",HMGB1-induced TNF-alpha production,[1],74.2%
CCN1CCCC1CNC(=O)c1cc(S(N)(=O)=O)ccc1OC (centres undefined),HMGB1-induced TNF-alpha production,compound concentration: 3 uM,93.1%
CCN1CCCC1CNC(=O)c1cc(S(N)(=O)=O)ccc1OC (centres undefined) [Sulpiride],HMGB1-induced TNF-alpha production,compound concentration: 3 uM,73%
O=C(O)c1cc2cc(F)ccc2[nH]1 [5-Fluoroindole-2-carboxylic acid],HMGB1-induced TNF-alpha production,compound concentration: 3 uM,99.3%
CC12CC3CC(C)(C1)CC(N)(C3)C2 [Memantine Hydrochloride],HMGB1-induced TNF-alpha production,compound concentration: 3 uM,92.3%
CC12CC3CC(C)(C1)CC(N)(C3)C2,HMGB1-induced TNF-alpha production,compound concentration: 3 uM,91 ± 4.5%
CC12CC3CC(C)(C1)CC(N)(C3)C2 [Memantine hydrochloride],HMGB1-induced TNF-alpha production,compound concentration: 3 uM,102%
CC12CC3CC(C)(C1)CC(N)(C3)C2 [Memantine],HMGB1-induced TNF-alpha production,compound concentration: 3 uM,120%
Nc1ccc(S(=O)(=O)O)cc1.Nc1ccc(S(=O)(=O)O)cc1.[Zn],HMGB1-induced TNF-alpha production,compound concentration: 3 uM,87%
C#C[C@]1(O)CC[C@H]2[C@@H]3CCC4=Cc5oncc5C[C@]4(C)[C@H]3CC[C@@]21C,HMGB1-induced TNF-alpha production,compound concentration: 3 uM,84.9%
C#C[C@]1(O)CC[C@H]2[C@@H]3CCC4=Cc5oncc5C[C@]4(C)[C@H]3CC[C@@]21C [Danazol],HMGB1-induced TNF-alpha production,compound concentration: 3 uM,70.4 ± 7.4%
O=C(Nc1ccc([N+](=O)[O-])cc1Cl)c1cc(Cl)ccc1O [Niclosamide],HMGB1-induced TNF-alpha production,compound concentration: 3 uM,271 ± 44%
O=C(Nc1ccc([N+](=O)[O-])cc1Cl)c1cc(Cl)ccc1O,HMGB1-induced TNF-alpha production,compound concentration: 3 uM,241 ± 130%
CCOc1ccc(Cc2nccc3cc(OCC)c(OCC)cc23)cc1OCC,HMGB1-induced TNF-alpha production,compound concentration: 3 uM,106%
CCOc1ccc(Cc2nccc3cc(OCC)c(OCC)cc23)cc1OCC [Ethaverine hydrochloride],HMGB1-induced TNF-alpha production,compound concentration: 3 uM,111%
N[C@@H](Cc1cnc[nH]1)C(=O)Nc1ccc2ccccc2c1 [L-Histidine beta-naphthylamide],HMGB1-induced TNF-alpha production,[1],98.9%
COc1ccc(-c2cc(=O)c3c(OC)c(OC)c(OC)c(OC)c3o2)cc1OC,HMGB1-induced TNF-alpha production,compound concentration: 3 uM,102%
COc1ccc(-c2cc(=O)c3c(OC)c(OC)c(OC)c(OC)c3o2)cc1OC [Nobiletin],HMGB1-induced TNF-alpha production,compound concentration: 3 uM,99.1%
CCC[C@@H]1C[C@@H](C(=O)N[C@@H]([C@H]2O[C@H](SC)[C@H](O)[C@@H](O)[C@H]2O)[C@@H](C)O)N(C)C1 [Lincomycin],HMGB1-induced TNF-alpha production,compound concentration: 3 uM,94%
CCC[C@@H]1C[C@@H](C(=O)N[C@@H]([C@H]2O[C@H](SC)[C@H](O)[C@@H](O)[C@H]2O)[C@@H](C)O)N(C)C1 [Lincomycin hydrochloride],HMGB1-induced TNF-alpha production,compound concentration: 3 uM,70.8%
CCC[C@@H]1C[C@@H](C(=O)N[C@@H]([C@H]2O[C@H](SC)[C@H](O)[C@@H](O)[C@H]2O)[C@@H](C)O)N(C)C1,HMGB1-induced TNF-alpha production,compound concentration: 3 uM,96.2%
CN1CCCN=C1/C=C/c1cccs1 [Pyrantel Pamoate],HMGB1-induced TNF-alpha production,compound concentration: 3 uM,95.8%
CN1CCCN=C1/C=C/c1cccs1 [Pyrantel tartrate],HMGB1-induced TNF-alpha production,compound concentration: 3 uM,93.8%
CN1CCCN=C1/C=C/c1cccs1,HMGB1-induced TNF-alpha production,compound concentration: 3 uM,78%
CC(C)(C)NC(=O)[C@H]1CC[C@H]2[C@@H]3CC[C@H]4NC(=O)C=C[C@]4(C)[C@H]3CC[C@]12C [Finasteride],HMGB1-induced TNF-alpha production,compound concentration: 3 uM,95.6 ± 13%
CC(C)(C)NC(=O)[C@H]1CC[C@H]2[C@@H]3CC[C@H]4NC(=O)C=C[C@]4(C)[C@H]3CC[C@]12C,HMGB1-induced TNF-alpha production,compound concentration: 3 uM,103.1 ± 0.71%
C=CC[N+]1([C@H]2C[C@H]3[C@@H]4CC[C@H]5C[C@H](O)[C@@H](N6CCOCC6)C[C@]5(C)[C@H]4CC[C@]3(C)[C@H]2OC(C)=O)CCCC1 [Rocuronium],HMGB1-induced TNF-alpha production,compound concentration: 3 uM,99.8%
Nc1nc(N)c2nc(-c3ccccc3)c(N)nc2n1 [Triamterene],HMGB1-induced TNF-alpha production,compound concentration: 3 uM,86 ± 19%
Nc1nc(N)c2nc(-c3ccccc3)c(N)nc2n1,HMGB1-induced TNF-alpha production,compound concentration: 3 uM,68.5%
C=C1CC[C@H](O)C/C1=C/C=C1\CCC[C@]2(C)[C@@H]([C@H](C)/C=C/[C@H](C)C(C)C)CC[C@@H]12,HMGB1-induced TNF-alpha production,compound concentration: 3 uM,82.8%
CCCCOc1ccc(C(=O)CCN2CCCCC2)cc1,HMGB1-induced TNF-alpha production,compound concentration: 3 uM,67.3%
CCCCOc1ccc(C(=O)CCN2CCCCC2)cc1 [Dyclonine hydrochloride],HMGB1-induced TNF-alpha production,compound concentration: 3 uM,66.1%
C=C1C(=O)O[C@H]2[C@H]1CC/C(C)=C/CC[C@@]1(C)O[C@@H]21 [Parthenolide],HMGB1-induced TNF-alpha production,[1],22.7%
same,HMGB1-induced TNF-alpha production,compound concentration: 3 uM,11.3 ± 13%
CC[C@H](C)C(=O)O[C@H]1C[C@H](O)C=C2C=C[C@H](C)[C@H](CC[C@@H]3C[C@@H](O)CC(=O)O3)[C@H]21 [Pravastatin Lactone],HMGB1-induced TNF-alpha production,compound concentration: 3 uM,87.3%

# At a glance, part of the list above.
smiles,measurement,setting,value
CCCCOc1ccc(C(=O)CCN2CCCCC2)cc1 [Dyclonine hydrochloride],HMGB1-induced TNF-alpha production,compound concentration: 3 uM,66.1%
C=C1C(=O)O[C@H]2[C@H]1CC/C(C)=C/CC[C@@]1(C)O[C@@H]21 [Parthenolide],HMGB1-induced TNF-alpha production,[1],22.7%
